Patent CN114426582A
Results are given in words; binding and its absence hold for the method and conditions named. Some results given as binding are weak or reduced against the parent protein; the word gives no strength.

Sequences of proteins named here, by UniProt entry; tags and fusion partners are left off.
UniProt P09104: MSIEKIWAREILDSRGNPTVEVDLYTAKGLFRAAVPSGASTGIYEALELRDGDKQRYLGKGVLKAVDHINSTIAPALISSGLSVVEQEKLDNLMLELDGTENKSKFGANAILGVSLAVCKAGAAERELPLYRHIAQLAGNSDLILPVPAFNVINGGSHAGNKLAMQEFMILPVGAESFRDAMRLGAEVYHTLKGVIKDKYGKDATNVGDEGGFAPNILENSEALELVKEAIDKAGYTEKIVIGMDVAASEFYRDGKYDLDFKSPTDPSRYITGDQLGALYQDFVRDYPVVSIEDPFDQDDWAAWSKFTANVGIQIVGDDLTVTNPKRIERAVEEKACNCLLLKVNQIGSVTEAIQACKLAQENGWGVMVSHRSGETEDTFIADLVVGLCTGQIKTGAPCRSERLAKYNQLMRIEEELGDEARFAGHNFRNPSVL

What was measured:
[1] = target: 纯化的ENO2蛋白 (coating protein of the Example 7 ELISA) (human) (UniProt P09104); assay: ELISA result of Example 7 step 2, told again with the immunofluorescence expression result
[2] = target: 纯化的ENO2蛋白 (coating protein of the Example 7 ELISA) (human) (UniProt P09104); assay: ELISA, ENO2-coated plate (100 ng/well), 293T supernatant, HRP anti-IgG / anti-kappa secondary

binding [1]: binds
binding [2]: binds
Substance: 重组4C11单克隆抗体 (4C11mG1+4C11mk co-transfected in 293T cells) (from UniProt P01868 1-324; P01837 1-107) (antibody)
